Results taken from patent US20100063032A1, “SUBSTITUTED PYRIDO[2,3-D]PYRIMIDINE DERIVATIVES AS CANNABINOID-1 RECEPTOR MODULATORS” (priority 2007, published 2010).
Some entries share one result that the patent states for a list of compounds.

Chains of the proteins cited; added tags and fusions are not shown.
UniProt P21554, whole entry: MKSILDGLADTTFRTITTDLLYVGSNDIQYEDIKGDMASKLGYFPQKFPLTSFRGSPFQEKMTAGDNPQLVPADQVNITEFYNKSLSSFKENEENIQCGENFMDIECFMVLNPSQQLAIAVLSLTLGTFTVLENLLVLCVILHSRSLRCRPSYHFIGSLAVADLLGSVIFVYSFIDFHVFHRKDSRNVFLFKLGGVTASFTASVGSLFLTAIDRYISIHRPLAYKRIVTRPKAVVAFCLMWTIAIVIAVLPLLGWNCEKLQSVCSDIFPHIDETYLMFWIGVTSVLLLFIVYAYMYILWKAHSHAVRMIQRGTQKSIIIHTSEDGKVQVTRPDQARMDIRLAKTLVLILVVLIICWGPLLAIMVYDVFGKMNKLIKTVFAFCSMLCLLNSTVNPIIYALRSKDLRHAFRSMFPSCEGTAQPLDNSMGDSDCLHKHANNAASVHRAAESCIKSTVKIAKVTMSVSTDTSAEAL

target: recombinant human CB1 receptor (Homo sapiens, UniProt P21554); assay: Cannabinoid Receptor-1 (CB1) Binding Assay ([3H]CP-55940 displacement); details: recombinant human CB1 in CHO cell membranes, 0.6 nM [3H]CP-55940

**Q.** With `CC(C)(C)c1nc(NNC(=O)NN)c2cc(-c3ccc(Cl)cc3)c(-c3ccccc3Cl)nc2n1` [Example 59, N″-[2-Tert-butyl-7-(2-chlorophenyl)-6-(4-chlorophenyl)pyrido[2,3-d]pyrimidin-4-yl]carbonohydrazide] as the molecule, how does the IC50 read?
**A.** The IC50 was under 1000 nM.

**Q.** `Cn1c(-c2ccc(Cl)cc2)nc2nc(-c3ccccc3Cl)c(-c3ccc(Cl)cc3)cc2c1=O` [Example 60, 7-(2-Chlorophenyl)-2,6-bis(4-chlorophenyl)-3-methylpyrido[2,3-d]pyrimidin-4(3H)-one] was tested. Which IC50 did it give?
**A.** Its IC50 is under 1000 nM.

**Q.** Which IC50 does the source give for `CC(C)c1nc2nc(-c3ccccc3Cl)c(-c3ccc(Cl)cc3)cc2c(=O)n1Cc1ncon1` [Example 61, 7-(2-Chlorophenyl)-6-(4-chlorophenyl)-2-isopropyl-3-(1,2,4-oxadiazol-3-ylmethyl)pyrido[2,3-d]pyrimidin-4(3H)-one] here?
**A.** The IC50 was under 1000 nM.

**Q.** Which IC50 does the source give for `O=c1c2cc(-c3ccc(Cl)cc3)c(-c3ccc(Cl)cc3Cl)nc2nc(C2CC2)n1Cc1ncon1` [Example 62, 6-(4-Chlorophenyl)-2-cyclopropyl-7-(2,4-dichlorophenyl)-3-(1,2,4-oxadiazol-3-ylmethyl)pyrido[2,3-d]pyrimidin-4(3H)-one] here?
**A.** The IC50 was under 1000 nM.

**Q.** Which IC50 does the source give for `COc1nc(C(C)(C)C)nc2nc(-c3ccccc3Cl)c(-c3ccc(Cl)cc3)cc12` [Example 63, 2-Tert-butyl-7-(2-chlorophenyl)-6-(4-chlorophenyl)-4-methoxypyrido[2,3-d]pyrimidine] here?
**A.** The IC50 was under 1000 nM.

**Q.** How did the IC50 turn out when `COc1nc(-c2ccc(Cl)cc2)nc2nc(-c3ccccc3Cl)c(-c3ccc(Cl)cc3)cc12` [Example 64, 7-(2-Chlorophenyl)-2,6-bis(4-chlorophenyl)-4-methoxypyrido[2,3-d]pyrimidine] was run?
**A.** Its IC50 is under 1000 nM.

**Q.** `CC(C)c1nc(OCc2ncon2)c2cc(-c3ccc(Cl)cc3)c(-c3ccccc3Cl)nc2n1` [Example 65, 7-(2-Chlorophenyl)-6-(4-chlorophenyl)-2-isopropyl-4-(1,2,4-oxadiazol-3-ylmethoxy)pyrido[2,3-d]pyrimidine] was tested. Which IC50 did it give?
**A.** Its IC50 is under 1000 nM.

**Q.** For `Clc1ccc(-c2cc3c(OCc4ncon4)nc(C4CC4)nc3nc2-c2ccc(Cl)cc2Cl)cc1` [Example 66, 6-(4-Chlorophenyl)-2-cyclopropyl-7-(2,4-dichlorophenyl)-4-(1,2,4-oxadiazol-3-ylmethoxy)pyrido[2,3-d]pyrimidine], which IC50 is on record?
**A.** The IC50 was under 1000 nM.

**Q.** `CCOC(=O)COc1nc(C(C)(C)C)nc2nc(-c3ccc(Cl)cc3Cl)c(-c3ccc(Cl)cc3)cc12` [Example 67, Ethyl {[2-tert-butyl-6-(4-chlorophenyl)-7-(2,4-dichlorophenyl)pyrido[2,3-d]pyrimidin-4-yl]oxy}acetate] was tested. Which IC50 did it give?
**A.** Its IC50 is under 1000 nM.

**Q.** Which IC50 does the source give for `CC(C)(C)c1nc(C#N)c2cc(-c3ccc(Br)cc3)c(-c3ccccc3Cl)nc2n1` [Example 68, 6-(4-Bromophenyl)-2-tert-butyl-7-(2-chlorophenyl)pyrido[2,3-d]pyrimidine-4-carbonitrile] here?
**A.** Its IC50 is under 1000 nM.

**Q.** For `CC(C)(C)c1nc(C#N)c2cc(-c3ccc(C#N)cc3)c(-c3ccccc3Cl)nc2n1` [Example 69, 2-Tert-butyl-7-(2-chlorophenyl)-6-(4-cyanophenyl)pyrido[2,3-d]pyrimidine-4-carbonitrile], which IC50 is on record?
**A.** The IC50 was under 1000 nM.

**Q.** For `CC(C)(C)c1nc(C#N)c2cc(-c3ccc(Cl)cc3)c(-c3ccccc3Cl)nc2n1` [Example 70, 2-Tert-butyl-7-(2-chlorophenyl)-6-(4-chlorophenyl)pyrido[2,3-d]pyrimidine-4-carbonitrile], which IC50 is on record?
**A.** The IC50 was under 1000 nM.

**Q.** For `CC(C)(C)c1nc2nc(-c3ccccc3Cl)c(-c3ccc(C#N)cc3)cc2c(=O)[nH]1` [Example 71, 4-[2-Tert-butyl-7-(2-chlorophenyl)-4-oxo-3,4-dihydropyrido[2,3-d]pyrimidin-6-yl]benzonitrile], which IC50 is on record?
**A.** Its IC50 is under 1000 nM.

**Q.** Which IC50 does the source give for `CC(C)(C)c1nc(-c2ccc(F)cc2)c2cc(-c3ccc(Cl)cc3)c(-c3ccccc3Cl)nc2n1` [Example 72, 2-Tert-butyl-7-(2-chlorophenyl)-6-(4-chlorophenyl)-4-(4-fluorophenyl)pyrido[2,3-d]pyrimidine] here?
**A.** The IC50 was under 1000 nM.

**Q.** `COC(=O)c1nc(C(C)(C)C)nc2nc(-c3ccccc3Cl)c(-c3ccc(Cl)cc3)cc12` [Example 73, Methyl 2-tert-butyl-7-(2-chlorophenyl)-6-(4-chlorophenyl)pyrido[2,3-d]pyrimidine-4-carboxylate] was tested. Which IC50 did it give?
**A.** Its IC50 is under 1000 nM.

**Q.** For `CCOC(=O)c1nc(Cl)c2cc(-c3ccc(Cl)cc3)c(-c3ccccc3Cl)nc2n1` [Example 74, Ethyl 4-chloro-7-(2-chlorophenyl)-6-(4-chlorophenyl)pyrido[2,3-d]pyrimidine-2-carboxylate], which IC50 is on record?
**A.** The IC50 was under 1000 nM.
